Test results taken from PubChem BioAssay AID504834 (National Center for Advancing Translational Sciences (NCATS), 2011).
Hit rate of the full screen: of about 320,000 compounds, about 22,000 (6.9%) were called active. Inconclusive results, whose numbers are uncertain, are shown with a selection of clear calls. Calls come from the whole dose curve; as a rule, active = well fitted inhibition curve with a large enough effect; inconclusive = small, poorly fitted or top-dose-only effect, or another doubt; inactive = no such curve, though single readings can be large or run the other way. Where the call is inconclusive, the potency comes from a doubtful curve fit.
% is set by controls: 0 for no effect and ±100 for the full control effect; potency is the fitted concentration of half-maximal effect.

Test: Primary qHTS for delayed death inhibitors of the malarial parasite plastid, 96 hour incubation
Details: P. falciparum luciferase reporter growth; series mostly up to 28.7 µM; activity change, negative = inhibition: at the top concentration
Outline: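 Parasite growth measured via integrated firefly luciferase reporter in P. falciparum. Infected erythrocytes at 2% hematocrit, 0.05% parasitemia final were treated 96 hours at 37 C under 5% CO2, and luminescence was read.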
In the case of Cc1ccc(NC(=O)CCn2cnc3cc(C)c(C)cc32)cc1, the Potency is reported as inconclusive: 13.1 µM [inhibitor, partial curve, poor fit].
With CC(C)Nc1ncnc2c1nnn2Cc1ccccc1 the Potency was inconclusive: 20.8 µM [inhibitor, single point].
For COCCn1c(-c2ccccc2)nc2c(c(=O)c3ccccc3n2C)c1=O, the Potency was active: 14.7 µM.
With Cc1cc(NNC(=O)Nc2cccc(Cl)c2)nc2c1c(C)nn2C the Potency was inconclusive: 18.5 µM [inhibitor, single point].
In the case of CCCCN(C(=O)c1ccc2c(c1)OCCO2)c1c(N)n(CC(C)C)c(=O)[nH]c1=O, the “activity change, negative = inhibition” value is reported as inactive: 1.49%.
For O=C(NCc1cccs1)c1cnc2ccccn2c1=O, the Potency was inconclusive: 0.117 µM [inhibitor, partial curve, poor fit].
For O=C(O)C1CSC(c2coc3ccccc3c2=O)N1 (stereo unspecified), the Potency was inconclusive: 18.5 µM [inhibitor, single point].
For CSCc1nnc(NC(=O)c2ccc(S(=O)(=O)N3CCCCC3C)cc2)o1 (stereo unspecified), the Potency was inconclusive: 10.4 µM [inhibitor, partial curve].
In the case of COc1ccccc1Nc1nc(N)nc(CSC(=S)N2CCCCC2)n1, the “activity change, negative = inhibition” value is reported as inactive: 24.9%.
With CN1CCN(C(=O)c2ccc(CS(=O)Cc3ccc(Cl)cc3)o2)CC1 (stereo unspecified) the Potency was inconclusive: 18.5 µM [inhibitor, single point].
For COC(=O)c1cc(C(=O)OC)cc(N2C(=O)CC(NNC(=O)c3ccc(C)cc3)C2=O)c1 (stereo unspecified), the Potency was inconclusive: 0.117 µM [inhibitor, full curve, poor fit].
For CCOC(=O)CCCNC(=O)CN1C(=O)NC(c2ccccc2)(c2ccccc2)C1=O, the Potency was inconclusive: 18.5 µM [inhibitor, single point].
In the case of COc1ccc(OC)c(NC(=O)CC(NC(C)=O)c2ccccc2)c1 (stereo unspecified), the “activity change, negative = inhibition” value is reported as inactive: -12.7%.
With Nc1ccc2oc(CCc3ccccc3)nc2c1 the “activity change, negative = inhibition” value was inactive: 43.8%.
For COc1cc(C)c(S(=O)(=O)NOCc2ccccc2)c(C)c1C, the Potency was inconclusive: 18.5 µM [inhibitor, single point].
With CC(=O)c1ccc(NS(=O)(=O)c2ccc(N)cc2)cc1 the “activity change, negative = inhibition” value was inactive: 19%.
With CC(=O)NC(Cc1ccccc1C)C(=O)NC1CCN(C(=O)c2cccc(C)c2)CC1 (stereo unspecified) the Potency was inconclusive: 18.5 µM [inhibitor, single point].
In the case of Cc1cc(N2CCN(c3ccc(F)cc3)CC2)nc(-c2ccccc2)n1, the “activity change, negative = inhibition” value is reported as inactive: 5.35%.
For COc1cccc(NC(=O)CN(C)C(=O)/C=C/c2ccc3ccccc3n2)c1, the Potency was inconclusive: 18.5 µM [inhibitor, single point].
In the case of CCN(CC)S(=O)(=O)c1ccc(Cl)c(C(=O)NC2CCN(Cc3ccccc3)CC2)c1, the “activity change, negative = inhibition” value is reported as inactive: -15.9%.
With CC1(C)CC(=O)C=C(c2cccc3c2Oc2ccccc2S3)C1 the Potency was inconclusive: 10.4 µM [inhibitor, single point].
With CCc1cc(C(=O)Nc2nc(-c3ccccn3)cs2)sc1C the Potency was inconclusive: 4.15 µM [inhibitor, full curve, poor fit].
With O=C(C1CCN(S(=O)(=O)c2ccccc2F)CC1)N1CCN(Cc2ccc3c(c2)OCO3)CC1 the Potency was inconclusive: 6.57 µM [inhibitor, partial curve].
For Cc1cccc(NC(=O)NNC(=O)c2cc3occc3[nH]2)c1C, the Potency was inconclusive: 18.5 µM [inhibitor, single point].
With CC(C)OCC(O)CN1CCN(C(c2ccccc2)c2ccccc2)CC1 (stereo unspecified) the “activity change, negative = inhibition” value was inactive: -7.62%.
In the case of COc1ccccc1NC(=O)CSc1nnc(CNC(=O)c2cccs2)o1, the Potency is reported as inconclusive: 5.22 µM [inhibitor, partial curve].
In the case of Cc1ccc(C)c(C(=O)COC(=O)CN2C(=O)C3C4CCC(C4)C3C2=O)c1 (stereo unspecified), the Potency is reported as inconclusive: 20.8 µM [inhibitor, single point].
With COc1cccc(C(=O)NCCSc2ccc(C)cc2)c1 the Potency was inconclusive: 18.5 µM [inhibitor, single point].
With CC(C)(C)CN1CCN(CCCc2ccccc2)C(CCO)C1 (stereo unspecified) the Potency was inconclusive: 7.38 µM [inhibitor, single point].
With Cc1ccc2nc(-c3ccc(O)c(O)c3)cn2c1 the “activity change, negative = inhibition” value was inactive: -1.84%.
With COc1ccc(NC(=O)N2CCCC(c3nc(-c4ccc(OC)cc4)no3)C2)cc1 (stereo unspecified) the “activity change, negative = inhibition” value was inactive: 18.8%.
With CCn1c(SCC(=O)NC2CC2)nnc1-c1csc(C)c1 the Potency was inconclusive: 3.7 µM [inhibitor, full curve].
For O=C(O)C1CCCCC1C(=O)NCCCc1ccccc1 (stereo unspecified), the Potency was inconclusive: 3.29 µM [inhibitor, single point].
With O=S(=O)(Nc1cccc2nsnc12)c1ccccc1 the “activity change, negative = inhibition” value was inactive: 10.5%.
With CC1(C)CC(=O)C=C(N2CCOCC2)C1 the Potency was inconclusive: 1.31 µM [inhibitor, full curve, poor fit].
For CCCC(=O)Nc1c2c(nc3ccccc13)N(c1ccccc1)CC2, the Potency was inconclusive: 8.28 µM [inhibitor, partial curve, poor fit].
For O=C(COC(=O)c1cc([N+](=O)[O-])ccc1N1CCOCC1)NCc1ccc(F)cc1, the “activity change, negative = inhibition” value was inactive: 24.4%.
In the case of Cc1ccc(O)c(NC(=O)c2ccc3c(c2)C(=O)N(Cc2cccnc2)C3=O)c1, the Potency is reported as inconclusive: 18.5 µM [inhibitor, single point].
With O=S(=O)(CC(CN1CCCCC1)N1CCCCC1)c1ccccc1 (stereo unspecified) the Potency was inconclusive: 18.5 µM [inhibitor, single point].
With CCOC(=O)CSc1nc(NCc2ccco2)c2ccccc2n1 the “activity change, negative = inhibition” value was inactive: 5.13%.
With O=C(Nc1cccc(F)c1)c1cccc2c1C(=O)N(C1CCCCC1)C2 the Potency was inconclusive: 18.5 µM [inhibitor, single point].
For COc1cccc(-c2nc(CSCC(=O)N3CCc4ccccc43)c(C)o2)c1, the Potency was inconclusive: 13.1 µM [inhibitor, single point].
With O=C(NC(=S)Nc1ccccc1[N+](=O)[O-])c1ccco1 the Potency was inconclusive: 0.928 µM [inhibitor, partial curve, poor fit].
With CCOC(=O)C1=C(O)/C(=C/c2cc(C)n(-c3ccccc3)c2C)N=C1C the Potency was active: 0.657 µM.
In the case of Cc1ccc(/C=N/N=C/c2ccc(C)s2)s1, the “activity change, negative = inhibition” value is reported as inactive: 369%.
For O=C(CCn1nc(-c2ccc(Cl)cc2)ccc1=O)NCc1ccccn1, the Potency was inconclusive: 18.5 µM [inhibitor, single point].
In the case of Cc1cccc(OCCCC(=O)NCc2ccco2)c1, the Potency is reported as inconclusive: 0.165 µM [inhibitor, full curve, poor fit].
For COc1ccc(C(=O)N2CCCc3ccccc32)cc1Br, the Potency was inconclusive: 11.7 µM [inhibitor, single point].
For Cc1c(C(=O)N2CCCCC2)c(S(=O)(=O)NCc2ccc(F)cc2)c(C)n1C, the “activity change, negative = inhibition” value was inactive: -2.59%.
For Cc1ccc(C2C3C(=O)N(c4ccc(C)cc4)C(=O)C3N3CCCN23)cc1 (stereo unspecified), the Potency was inconclusive: 4.15 µM [inhibitor, single point].
In the case of COc1ccc2oc(=O)c(C(=O)NCc3ccccc3)cc2c1, the Potency is reported as inconclusive: 18.5 µM [inhibitor, single point].
With O=C(NCc1cc([N+](=O)[O-])ccc1O)c1cc(-c2ccncc2)nc2ccccc12 the Potency was inconclusive: 20.8 µM [inhibitor, single point].
For COc1cc(NC(=O)COc2cccc3c2OC(C)(C)C3)cc(OC)c1OC, the Potency was inconclusive: 13.1 µM [inhibitor, partial curve, poor fit].
With N#Cc1ccc(Cl)cc1NC(=O)CNCc1cccs1 the “activity change, negative = inhibition” value was inactive: 40.3%.
With Cc1ccc(N(Cc2cc3ccccc3[nH]c2=O)C(=O)c2cccs2)cc1 the Potency was inconclusive: 10.4 µM [inhibitor, partial curve].
With Cc1ccc2nc(NCc3ccccc3)c(C=NCc3ccccc3)c(=O)n2c1 the “activity change, negative = inhibition” value was inactive: -8.45%.
In the case of O=C(COC(=O)/C=C/c1ccccc1[N+](=O)[O-])NCC1CCCO1 (stereo unspecified), the “activity change, negative = inhibition” value is reported as inactive: 22.4%.
For COc1ccccc1OCC(=O)NN=C(Cc1ccccc1)Cc1ccccc1, the Potency was inconclusive: 0.657 µM [inhibitor, full curve, poor fit].
For C=CCc1c(C)c(C#N)c2nc3ccccc3n2c1N1CCCCC1, the Potency was active: 1.85 µM.
With COc1ccc(/C=C2\SC(=O)N(CCCC(=O)Nc3ccc(C(=O)O)cc3)C2=O)cc1OC the “activity change, negative = inhibition” value was inactive: -24%.
In the case of CCN1CCN(CCCNC(=O)c2ccccc2NC(=O)C2=C(C)OCCS2)CC1, the Potency is reported as inconclusive: 18.5 µM [inhibitor, single point].
With COc1ccc(CNC(=O)COc2ccc(S(=O)(=O)N3CCOCC3)cc2C)cc1 the Potency was inconclusive: 1.04 µM [inhibitor, partial curve, poor fit].
With Cc1c(Cl)cccc1N(CC(=O)N1CCCCCC1)S(C)(=O)=O the Potency was inconclusive: 18.5 µM [inhibitor, single point].
For CCCCN(C)CCNC(=O)C1CCN(S(=O)(=O)c2cccc3nsnc23)CC1, the “activity change, negative = inhibition” value was inactive: 38.1%.
For CC1(O)CCN2C(=O)CCc3cccc1c32 (stereo unspecified), the Potency was inconclusive: 13.1 µM [inhibitor, partial curve, poor fit].
In the case of CCCNS(=O)(=O)c1ccc(OCC(=O)NCc2ccc3c(c2)OCO3)cc1, the “activity change, negative = inhibition” value is reported as inactive: 144%.
In the case of CC1CCN(C(=O)C2CCN(S(=O)(=O)c3cnc[nH]3)CC2)CC1, the Potency is reported as inconclusive: 4.15 µM [inhibitor, single point].
With CN(C)CCN(C(=O)c1cccc(N2C(=O)CCC2=O)c1)c1nc2ccc(Br)cc2s1 the “activity change, negative = inhibition” value was inactive: 5.85%.
With CCN(C(=O)COc1cc(=O)n(CC)c2ccccc12)c1cccc(Cl)c1 the Potency was inconclusive: 0.928 µM [inhibitor, full curve, poor fit].
In the case of CC1Nc2ncnc(N3CCOCC3)c2N(Cc2ccccc2)C1=O (stereo unspecified), the Potency is reported as inconclusive: 18.5 µM [inhibitor, single point].
With Cc1cccc(-n2nnnc2SCc2csc(-c3ccccc3)n2)c1 the Potency was inconclusive: 13.1 µM [inhibitor, single point].
